Results: the supplement of paper PMC11006884
The list shows a part of the results, in another mix than the full data.

By UniProt entry, the sequences of proteins in these tests, tags left out. Where a name states a change or a piece, a line headed by the entry shows the natural chain unless it says otherwise.
UniProt P50213: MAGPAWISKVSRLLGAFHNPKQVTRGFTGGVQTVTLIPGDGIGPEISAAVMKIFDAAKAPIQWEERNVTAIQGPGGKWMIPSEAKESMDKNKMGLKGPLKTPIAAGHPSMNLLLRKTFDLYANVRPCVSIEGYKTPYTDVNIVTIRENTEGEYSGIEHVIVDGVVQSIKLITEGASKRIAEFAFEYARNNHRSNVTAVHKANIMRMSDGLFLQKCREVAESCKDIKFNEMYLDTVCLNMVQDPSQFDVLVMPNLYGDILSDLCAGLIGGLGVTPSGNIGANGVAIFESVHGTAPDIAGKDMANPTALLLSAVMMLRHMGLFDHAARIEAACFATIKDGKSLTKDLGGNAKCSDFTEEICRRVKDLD
UniProt P49792, whole entry, looked up: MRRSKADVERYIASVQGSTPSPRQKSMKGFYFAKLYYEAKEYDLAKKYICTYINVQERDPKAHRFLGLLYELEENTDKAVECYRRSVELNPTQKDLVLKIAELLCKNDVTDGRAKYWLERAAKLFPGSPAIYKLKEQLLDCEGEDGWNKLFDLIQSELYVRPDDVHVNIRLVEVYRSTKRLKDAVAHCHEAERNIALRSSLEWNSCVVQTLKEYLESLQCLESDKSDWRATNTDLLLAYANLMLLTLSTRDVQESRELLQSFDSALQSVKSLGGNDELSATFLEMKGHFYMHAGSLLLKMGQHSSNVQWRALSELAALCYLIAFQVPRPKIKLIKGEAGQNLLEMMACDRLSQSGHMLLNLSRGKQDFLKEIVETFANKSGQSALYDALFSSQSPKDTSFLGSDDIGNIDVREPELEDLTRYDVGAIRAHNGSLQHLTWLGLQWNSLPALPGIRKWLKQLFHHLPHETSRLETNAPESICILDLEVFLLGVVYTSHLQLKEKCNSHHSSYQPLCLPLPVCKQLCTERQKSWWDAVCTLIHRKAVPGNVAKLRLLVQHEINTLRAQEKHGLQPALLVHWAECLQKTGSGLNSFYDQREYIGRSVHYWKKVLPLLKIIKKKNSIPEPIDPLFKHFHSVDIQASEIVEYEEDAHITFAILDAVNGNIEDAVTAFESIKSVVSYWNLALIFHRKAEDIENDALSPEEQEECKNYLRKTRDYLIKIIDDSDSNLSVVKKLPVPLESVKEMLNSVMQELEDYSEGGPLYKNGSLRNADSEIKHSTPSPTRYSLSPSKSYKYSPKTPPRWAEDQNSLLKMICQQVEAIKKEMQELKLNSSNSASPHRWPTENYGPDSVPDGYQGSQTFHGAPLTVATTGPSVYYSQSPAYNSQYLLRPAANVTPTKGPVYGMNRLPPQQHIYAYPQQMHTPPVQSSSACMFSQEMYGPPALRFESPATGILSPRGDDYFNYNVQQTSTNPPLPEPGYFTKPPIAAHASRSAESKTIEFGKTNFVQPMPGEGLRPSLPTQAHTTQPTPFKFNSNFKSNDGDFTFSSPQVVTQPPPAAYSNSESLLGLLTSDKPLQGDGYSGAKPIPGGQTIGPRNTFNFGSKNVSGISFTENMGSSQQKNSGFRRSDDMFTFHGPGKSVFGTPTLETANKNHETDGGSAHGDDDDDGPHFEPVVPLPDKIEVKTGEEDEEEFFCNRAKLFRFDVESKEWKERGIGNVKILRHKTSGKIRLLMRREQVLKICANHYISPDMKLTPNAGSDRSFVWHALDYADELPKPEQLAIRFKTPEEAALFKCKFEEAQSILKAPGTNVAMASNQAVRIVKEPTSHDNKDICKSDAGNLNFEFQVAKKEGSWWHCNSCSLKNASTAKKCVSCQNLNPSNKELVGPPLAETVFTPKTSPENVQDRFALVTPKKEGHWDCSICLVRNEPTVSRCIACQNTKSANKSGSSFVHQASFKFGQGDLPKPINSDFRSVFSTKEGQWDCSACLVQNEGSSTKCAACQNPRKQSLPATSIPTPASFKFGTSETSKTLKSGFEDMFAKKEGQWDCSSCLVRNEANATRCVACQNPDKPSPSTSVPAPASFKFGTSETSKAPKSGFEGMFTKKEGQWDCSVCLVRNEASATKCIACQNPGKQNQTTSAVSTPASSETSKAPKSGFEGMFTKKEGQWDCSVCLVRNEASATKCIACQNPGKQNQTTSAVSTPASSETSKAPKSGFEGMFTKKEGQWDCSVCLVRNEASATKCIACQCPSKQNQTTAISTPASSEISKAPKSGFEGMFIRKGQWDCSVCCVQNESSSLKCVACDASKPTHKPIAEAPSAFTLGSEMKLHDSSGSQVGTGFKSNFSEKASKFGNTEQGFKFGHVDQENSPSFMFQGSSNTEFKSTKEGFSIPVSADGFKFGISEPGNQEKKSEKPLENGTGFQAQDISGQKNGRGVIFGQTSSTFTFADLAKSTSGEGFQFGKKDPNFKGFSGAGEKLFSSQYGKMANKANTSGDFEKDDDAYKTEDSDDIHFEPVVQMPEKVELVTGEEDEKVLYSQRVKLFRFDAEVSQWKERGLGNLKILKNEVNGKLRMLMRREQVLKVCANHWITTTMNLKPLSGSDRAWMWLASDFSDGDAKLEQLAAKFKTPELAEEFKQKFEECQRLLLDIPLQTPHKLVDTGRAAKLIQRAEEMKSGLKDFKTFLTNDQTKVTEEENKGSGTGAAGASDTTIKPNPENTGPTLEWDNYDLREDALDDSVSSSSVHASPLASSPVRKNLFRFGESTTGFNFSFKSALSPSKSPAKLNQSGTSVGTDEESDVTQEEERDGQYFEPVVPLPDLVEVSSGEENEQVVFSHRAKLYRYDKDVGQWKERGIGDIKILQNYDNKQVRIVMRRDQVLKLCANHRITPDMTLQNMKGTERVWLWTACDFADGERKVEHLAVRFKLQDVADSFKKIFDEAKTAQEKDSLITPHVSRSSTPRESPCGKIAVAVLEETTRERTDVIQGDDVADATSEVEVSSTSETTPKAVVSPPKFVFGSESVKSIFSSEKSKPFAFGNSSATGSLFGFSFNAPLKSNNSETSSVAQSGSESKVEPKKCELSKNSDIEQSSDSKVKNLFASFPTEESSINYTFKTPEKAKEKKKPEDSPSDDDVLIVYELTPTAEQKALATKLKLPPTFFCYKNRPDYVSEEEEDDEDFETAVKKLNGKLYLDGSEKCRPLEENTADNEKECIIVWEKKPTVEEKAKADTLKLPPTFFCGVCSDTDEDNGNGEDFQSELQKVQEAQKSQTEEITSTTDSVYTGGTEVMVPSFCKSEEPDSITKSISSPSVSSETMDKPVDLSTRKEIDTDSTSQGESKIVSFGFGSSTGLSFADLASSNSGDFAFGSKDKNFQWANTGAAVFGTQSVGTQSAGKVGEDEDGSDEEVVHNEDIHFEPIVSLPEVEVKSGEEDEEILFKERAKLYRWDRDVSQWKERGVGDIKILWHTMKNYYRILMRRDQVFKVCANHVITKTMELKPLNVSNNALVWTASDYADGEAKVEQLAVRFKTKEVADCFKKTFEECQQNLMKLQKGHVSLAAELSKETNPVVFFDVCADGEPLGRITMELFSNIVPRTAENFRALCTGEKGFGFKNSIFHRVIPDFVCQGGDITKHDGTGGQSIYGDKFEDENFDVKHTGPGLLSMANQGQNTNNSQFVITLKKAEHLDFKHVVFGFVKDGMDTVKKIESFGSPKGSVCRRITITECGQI
UniProt P50991: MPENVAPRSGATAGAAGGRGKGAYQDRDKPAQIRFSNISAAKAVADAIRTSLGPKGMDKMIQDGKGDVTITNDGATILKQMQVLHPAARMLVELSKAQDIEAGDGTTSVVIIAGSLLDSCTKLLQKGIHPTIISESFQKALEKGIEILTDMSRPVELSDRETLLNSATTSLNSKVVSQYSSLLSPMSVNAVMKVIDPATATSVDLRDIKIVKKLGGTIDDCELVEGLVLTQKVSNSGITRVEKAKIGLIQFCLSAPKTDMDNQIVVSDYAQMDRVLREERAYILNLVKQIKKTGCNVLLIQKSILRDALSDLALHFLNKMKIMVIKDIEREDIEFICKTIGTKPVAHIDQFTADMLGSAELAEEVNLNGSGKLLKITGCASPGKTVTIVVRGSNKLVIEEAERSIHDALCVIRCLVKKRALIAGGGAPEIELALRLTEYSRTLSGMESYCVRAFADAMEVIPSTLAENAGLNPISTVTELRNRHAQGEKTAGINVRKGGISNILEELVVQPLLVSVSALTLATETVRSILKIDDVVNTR
UniProt P51610: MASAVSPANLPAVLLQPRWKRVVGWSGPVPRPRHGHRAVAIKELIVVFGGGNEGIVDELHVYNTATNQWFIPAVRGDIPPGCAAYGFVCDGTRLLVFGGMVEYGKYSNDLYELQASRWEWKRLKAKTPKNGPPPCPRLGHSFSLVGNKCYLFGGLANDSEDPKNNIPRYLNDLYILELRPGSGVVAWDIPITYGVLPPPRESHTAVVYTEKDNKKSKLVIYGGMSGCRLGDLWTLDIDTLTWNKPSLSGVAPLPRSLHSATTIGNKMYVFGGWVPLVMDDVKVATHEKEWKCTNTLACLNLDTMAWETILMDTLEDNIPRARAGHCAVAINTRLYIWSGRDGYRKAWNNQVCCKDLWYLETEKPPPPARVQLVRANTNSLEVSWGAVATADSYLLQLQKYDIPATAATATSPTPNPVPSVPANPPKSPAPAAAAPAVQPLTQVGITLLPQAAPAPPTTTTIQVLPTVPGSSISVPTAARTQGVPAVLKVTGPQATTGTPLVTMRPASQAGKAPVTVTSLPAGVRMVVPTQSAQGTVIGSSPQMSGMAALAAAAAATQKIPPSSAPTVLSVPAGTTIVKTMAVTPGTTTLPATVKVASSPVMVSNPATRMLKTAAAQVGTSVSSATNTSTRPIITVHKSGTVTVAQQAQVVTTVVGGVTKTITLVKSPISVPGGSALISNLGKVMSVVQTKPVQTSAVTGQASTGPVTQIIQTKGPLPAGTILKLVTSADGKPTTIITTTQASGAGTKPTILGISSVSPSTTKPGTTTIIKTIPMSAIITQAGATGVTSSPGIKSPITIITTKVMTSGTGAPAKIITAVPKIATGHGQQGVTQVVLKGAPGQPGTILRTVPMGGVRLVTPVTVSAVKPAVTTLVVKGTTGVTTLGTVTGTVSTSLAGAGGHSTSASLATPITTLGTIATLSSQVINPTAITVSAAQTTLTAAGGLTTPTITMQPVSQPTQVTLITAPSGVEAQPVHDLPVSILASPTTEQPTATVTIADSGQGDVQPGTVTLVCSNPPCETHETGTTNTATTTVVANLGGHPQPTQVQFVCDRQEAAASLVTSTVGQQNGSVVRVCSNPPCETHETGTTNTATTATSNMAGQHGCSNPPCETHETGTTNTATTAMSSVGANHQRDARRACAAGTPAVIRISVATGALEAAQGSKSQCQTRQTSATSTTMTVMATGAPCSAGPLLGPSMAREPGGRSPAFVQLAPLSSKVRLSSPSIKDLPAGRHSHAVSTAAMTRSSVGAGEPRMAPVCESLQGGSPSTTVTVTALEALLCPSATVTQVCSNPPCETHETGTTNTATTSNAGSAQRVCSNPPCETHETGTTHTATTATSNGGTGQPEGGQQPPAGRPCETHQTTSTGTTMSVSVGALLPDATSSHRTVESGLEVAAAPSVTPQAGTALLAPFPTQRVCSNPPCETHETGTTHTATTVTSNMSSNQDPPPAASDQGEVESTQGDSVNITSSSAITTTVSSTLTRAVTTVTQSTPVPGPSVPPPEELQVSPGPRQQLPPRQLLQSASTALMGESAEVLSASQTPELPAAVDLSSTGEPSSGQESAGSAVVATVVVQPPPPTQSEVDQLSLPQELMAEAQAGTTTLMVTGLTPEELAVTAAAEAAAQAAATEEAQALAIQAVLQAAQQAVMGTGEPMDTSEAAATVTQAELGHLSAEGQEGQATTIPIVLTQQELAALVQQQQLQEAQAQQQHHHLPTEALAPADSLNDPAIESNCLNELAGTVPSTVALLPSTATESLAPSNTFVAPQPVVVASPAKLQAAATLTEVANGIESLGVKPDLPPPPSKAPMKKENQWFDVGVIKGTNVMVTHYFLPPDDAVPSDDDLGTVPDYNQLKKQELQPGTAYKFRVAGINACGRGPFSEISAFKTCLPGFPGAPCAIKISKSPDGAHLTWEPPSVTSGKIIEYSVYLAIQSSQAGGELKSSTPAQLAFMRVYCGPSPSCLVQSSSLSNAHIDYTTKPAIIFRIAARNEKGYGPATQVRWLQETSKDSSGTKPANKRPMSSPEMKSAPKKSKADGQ
UniProt P51570: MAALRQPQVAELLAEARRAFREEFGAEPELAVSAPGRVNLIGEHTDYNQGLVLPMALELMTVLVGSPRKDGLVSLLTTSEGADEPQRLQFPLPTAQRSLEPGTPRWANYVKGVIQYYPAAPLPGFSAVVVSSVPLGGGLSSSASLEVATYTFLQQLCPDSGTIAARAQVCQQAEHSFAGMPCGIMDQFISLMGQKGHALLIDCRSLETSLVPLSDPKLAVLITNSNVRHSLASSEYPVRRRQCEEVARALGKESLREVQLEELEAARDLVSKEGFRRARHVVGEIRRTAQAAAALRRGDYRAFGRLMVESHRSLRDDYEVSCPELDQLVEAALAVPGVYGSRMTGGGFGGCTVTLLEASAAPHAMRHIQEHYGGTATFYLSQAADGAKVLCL

Compound: COC(=O)C#Cc1ccccc1 [methyl 3-phenylpropiolate]
Test: log2 ratio of iodoacetamide-alkyne labeling of the cysteine site, DMSO over compound (competition); higher = stronger covalent engagement of the cysteine by the compound, active = 1 or more
Conditions: 500 µM; treatment time 1 h; system: HEK293T cell lysate
Method in brief: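 Three replicates, each with duplicate channels, were prepared from HEK293T lysate (2 mg/mL) treated with vehicle or electrophile at 500 µM for 1 h at ambient temperature. Iodoacetamide alkyne was then applied for 1 h, and samples were clicked to sCIP-TMT reagents, pooled, trypsin-digested overnight at 37 °C, enriched on streptavidin, acid-eluted and analysed on Orbitrap Eclipse LC-MS/MS with FAIMS, with FragPipe quantification. The log2 competition ratio per cysteine is the mean control-channel divided by the mean compound-channel reporter intensity. Cysteines quantified in only one replicate were left out.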

Target	log2 ratio of iodoacetamide-alkyne labeling
IDH3A C222 (UniProt P50213)	inactive: 0.38
CCT3 C213 (UniProt P49368)	inactive: 0.101
GMPS C489 (UniProt P49915)	inactive: 0.0878
UniProt P49841_C14	inactive: 0.306
SMARCA4 C936 (UniProt P51532)	inactive: 0.5
RPL27A C144 (UniProt P46776)	inactive: 0.155
RANBP1 C99 (UniProt P43487)	inactive: 0.0956
RBM25 C110 (UniProt P49756)	inactive: 0.329
PLA2G4A C726 (UniProt P47712)	inactive: 0.482
CRKL C44 (UniProt P46109)	inactive: 0.103
RANGAP1 C303 (UniProt P46060)	inactive: 0.47
LRBA C1228 (UniProt P50851)	inactive: 0.296
INPP1 C10 (UniProt P49441)	inactive: 0.473
UTRN C1059 (UniProt P46939)	inactive: -0.137
MAP1B C2361 (UniProt P46821)	inactive: 0.49
RANBP2 C1196 (UniProt P49792)	inactive: 0.147
RPL34 C83 (UniProt P49207)	inactive: 0.281
NUMB C611 (UniProt P49757)	inactive: 0.465
CCT3 C173 (UniProt P49368)	inactive: 0.209
IDH2 C418 (UniProt P48735)	inactive: 0.306
CCT4 C120 (UniProt P50991)	inactive: 0.0913
FXR1 C157 (UniProt P51114)	inactive: 0.771
LIG3 C929 (UniProt P49916)	inactive: 0.317
RAB28 C31 (UniProt P51157)	inactive: 0.181
HCFC1 C1886 (UniProt P51610)	inactive: 0.415

Target	log2 ratio of iodoacetamide-alkyne labeling
VDAC2 C47 (UniProt P45880)	inactive: 0.538
GALK1 C322 (UniProt P51570)	inactive: -0.00419
USP5 C219 (UniProt P45974)	inactive: -0.184
CCT3 C279 (UniProt P49368)	inactive: -0.00266
RANBP2 C1296 (UniProt P49792)	inactive: 0.543
UniProt P48047_C141	inactive: 0.345
UTRN C1218 (UniProt P46939)	inactive: 0.0264
MKI67 C1373 (UniProt P46013)	inactive: 0.402
MCM2 C315 (UniProt P49736)	inactive: 0.337
RANBP2 C105 (UniProt P49792)	inactive: 0.0738
CCT4 C252 (UniProt P50991)	inactive: -0.0169
USP5 C335 (UniProt P45974)	inactive: -0.0751
SEPHS1 C31 (UniProt P49903)	inactive: 0.175
RPL21 C56 (UniProt P46778)	inactive: 0.699
METAP2 C135 (UniProt P50579)	inactive: 0.274
CCT5 C440 (UniProt P48643)	inactive: 0.26
ACADSB C175 (UniProt P45954)	inactive: 0.109
RPL14 C54 (UniProt P50914)	inactive: 0.22
IQGAP1 C660 (UniProt P46940)	inactive: 0.32
IDH3A C351 (UniProt P50213)	inactive: -0.35
NSF C11 (UniProt P46459)	inactive: 0.206
NUP153 C404 (UniProt P49790)	inactive: 0.515
LRBA C1704 (UniProt P50851)	inactive: 0.262
UniProt P49591_C438	inactive: 0.0645
CAPZA2 C111 (UniProt P47755)	inactive: 0.0355

Another view of some results above.
Target | log2 ratio of iodoacetamide-alkyne labeling
LIG3 C929 (UniProt P49916) | inactive: 0.317
RAB28 C31 (UniProt P51157) | inactive: 0.181
HCFC1 C1886 (UniProt P51610) | inactive: 0.415
VDAC2 C47 (UniProt P45880) | inactive: 0.538
GALK1 C322 (UniProt P51570) | inactive: -0.00419

(next part)

Target	log2 ratio of iodoacetamide-alkyne labeling
RPL34 C49 (UniProt P49207)	inactive: 0.379
DNM2 C607 (UniProt P50570)	inactive: 0.37
MKI67 C3241 (UniProt P46013)	inactive: 0.453
IDH3A C331 (UniProt P50213)	inactive: 0.257
RPL14 C42 (UniProt P50914)	active: 1.82
ARCN1 C441 (UniProt P48444)	inactive: 0.317
NSF C599 (UniProt P46459)	inactive: 0.286
IDH3A C359 (UniProt P50213)	active: 1.05
CCT4 C337 (UniProt P50991)	inactive: 0.0635
PRIM1 C354 (UniProt P49642)	inactive: 0.0608
GALK1 C170 (UniProt P51570)	inactive: 0.0992
NOP2 C463 (UniProt P46087)	inactive: 0.29
DNA2 C1051 (UniProt P51530)	inactive: 0.324
NDUFV1 C206 (UniProt P49821)	inactive: 0.223
HCFC1 C1895 (UniProt P51610)	active: 1.09
CCT3 C366 (UniProt P49368)	inactive: 0.0964
DNA2 C569 (UniProt P51530)	inactive: 0.558
CCT3 C398 (UniProt P49368)	inactive: 0.106
VASP C334 (UniProt P50552)	inactive: 0.404
UniProt P49591_C398	inactive: -0.294
NDUFV1 C187 (UniProt P49821)	inactive: -0.109
FASN C1548 (UniProt P49327)	inactive: -0.00359
MSH2 C199 (UniProt P43246)	inactive: 0.134
